Assay results taken from PubChem BioAssay AID248 (DTP/NCI, 2004).
The list is a part of this screen's results and no random one: it gathers tests that were run many times, whatever their T/C, doses with no T/C, and many T/C values between a quarter and a half above the control. Further doses and runs are listed elsewhere. T/C is the treated group as % of the vehicle group. Some entries give survivors of the animals treated and no T/C: the source holds a T/C of zero for them, seemingly a mark for toxic or unscored doses. Some survivor counts are full or nearly so, which does not show that the dose was tolerated: survival well below the control is almost never listed, so the zero probably covers shortened survival too. Counts of survivors are from the toxicity check (mostly the fifth day) where no day follows; animals may have died later. Schedule codes are those of the source, read here as Q, the interval in days (D) or hours (H), X, the number of doses. Some schedule codes hold Z or #, which are not explained here. Some structures stand for samples that the source files as different forms (salt, stereo form or complex); doses refer to the form tested. Where survival is the endpoint, this PubChem deposit counts one and a half times the control or more as active, and values a quarter to a half above the control carry no call in these data; other NCI protocols may use other cut-offs. Some entries hold several experiments; their values stand side by side, smallest first.

System: L1210 leukemia ip in BDF1 mice, survival T/C
Test: NCI In Vivo Anticancer Drug Screen. Data for tumor model L1210 Leukemia (intraperitoneal) in B6D2F1 (BDF1) mice
Settings: higher T/C = longer survival
[1] = T/C endpoint: mean survival time, dose: 400.0 mg/kg/injection, schedule: Q04DX002 (ip), vehicle: saline with Tween-80
[2] = T/C endpoint: mean survival time, dose: 200.0 mg/kg/injection, schedule: Q04DX003 (ip), vehicle: saline
[3] = T/C endpoint: mean survival time, dose: 100.0 mg/kg/injection, schedule: Q04DX003 (ip), vehicle: saline
[4] = T/C endpoint: mean survival time, dose: 400.0 mg/kg/injection, schedule: Q04DX003 (ip), vehicle: saline
[5] = T/C endpoint: mean survival time, dose: 400.0 mg/kg/injection, schedule: Q01DX001 (ip), vehicle: saline
[6] = T/C endpoint: mean survival time, dose: 400.0 mg/kg/injection, schedule: Q01DX001 (ip), vehicle: carboxymethylcellulose (CMC)
[7] = T/C endpoint: mean survival time, dose: 200.0 mg/kg/injection, schedule: Q04DX003 (ip), vehicle: saline with Tween-80
[8] = T/C endpoint: mean survival time, dose: 400.0 mg/kg/injection, schedule: Q04DX003 (ip), vehicle: saline with Tween-80
[9] = T/C endpoint: mean survival time, dose: 400.0 mg/kg/injection, schedule: Q04DX002 (ip), vehicle: saline

`CCC[CH2][Sn]([CH2]CC#N)([CH2]CCC)[CH2]CCC` was tested, and the survivor count (T/C endpoint: mean survival time, dose: 100.0 mg/kg/injection, schedule: Q04DX002 (ip), vehicle: saline with Tween-80) was 0 of 3, the survivor count (T/C endpoint: mean survival time, dose: 100.0 mg/kg/injection, schedule: Q04DX002 (ip), vehicle: saline) was 0 of 3 and the survivor count (T/C endpoint: mean survival time, dose: 200.0 mg/kg/injection, schedule: Q04DX002 (ip), vehicle: saline with Tween-80) was 0 of 3. For the same molecule, the survivor count [1] was 0 of 3.
For `CCN(CC)CCOc1cc(C)ccc1C`, the survivor count [2] was 1 of 6.
For `c1ccc(C[n+]2ccc3ccccc3c2)cc1`, the survivor count (T/C endpoint: mean survival time, dose: 75.0 mg/kg/injection, schedule: Q01DX001 (ip), vehicle: saline) was 2 of 6, the survivor count [3] was 2 of 6 and the survivor count (T/C endpoint: mean survival time, dose: 150.0 mg/kg/injection, schedule: Q01DX001 (ip), vehicle: saline) was 0 of 6. For the same molecule, the survivor count [2] was 0 of 6 and the survivor count (T/C endpoint: mean survival time, dose: 300.0 mg/kg/injection, schedule: Q01DX001 (ip), vehicle: saline) was 0 of 6.
With `C[n+]1ccc(Nc2ccc(NC(=O)c3ccc(N)cc3[N+](=O)[O-])cc2)cc1` the T/C (T/C endpoint: mean survival time, dose: 100.0 mg/kg/injection, schedule: Q01DX001 (ip), vehicle: saline with Tween-80) was 100, 106, 108, 138 % of control and the T/C (T/C endpoint: mean survival time, dose: 200.0 mg/kg/injection, schedule: Q01DX001 (ip), vehicle: saline with Tween-80) was 93, 103, 104, 106 % of control.
With `CN(C)CC/C=C1\c2ccccc2CSc2ccccc21` the survivor count (T/C endpoint: mean survival time, dose: 100.0 mg/kg/injection, schedule: Q01DX009 (ip), vehicle: saline) was 1 of 6, the survivor count [2] was 0 of 4 and the survivor count [4] was 0 of 4.
With `CS(=O)(=O)OC[C@H](OS(=O)(=O)O)[C@H](COS(C)(=O)=O)OS(=O)(=O)O` the survivor count [5] was 2 of 6.
In the case of `C[n+]1cccc2c3ccccc3c(-c3ccccc3)cc21`, the survivor count (T/C endpoint: mean survival time, dose: 12.5 mg/kg/injection, schedule: Q01DX009 (ip), vehicle: water) is reported as 3 of 6, the survivor count (T/C endpoint: mean survival time, dose: 25.0 mg/kg/injection, schedule: Q01DX009 (ip), vehicle: water) is reported as 3 of 6 and the survivor count (T/C endpoint: mean survival time, dose: 50.0 mg/kg/injection, schedule: Q04DX003 (ip), vehicle: water) is reported as 6 of 6. The survivor count (T/C endpoint: mean survival time, dose: 100.0 mg/kg/injection, schedule: Q04DX003 (ip), vehicle: water) was 0 of 6, the survivor count (T/C endpoint: mean survival time, dose: 200.0 mg/kg/injection, schedule: Q04DX003 (ip), vehicle: water) was 0 of 6 and the survivor count (T/C endpoint: mean survival time, dose: 400.0 mg/kg/injection, schedule: Q04DX003 (ip), vehicle: water) was 0 of 6.
In the case of `NNC(=O)Cc1ccc(Cl)c2ccccc12`, the survivor count (T/C endpoint: mean survival time, dose: 400.0 mg/kg/injection, schedule: Q04DX003 (ip), vehicle: Klucel (hydroxypropylcellulose) (HPC)) is reported as 5 of 6.
In the case of `Nc1c(Cl)ncn2[nH]c(=O)nc12`, the survivor count [6] is reported as 2 of 4.
For `COCC(CNO)OC(=O)c1ccc(N)cc1` (stereo not drawn), the survivor count (T/C endpoint: mean survival time, dose: 83.0 mg/kg/injection, schedule: Q01DX Z (ip), vehicle: saline) was 5 of 6.
In the case of `O=CC(Br)C(Br)c1ccccc1` (stereo not drawn), the survivor count [7] is reported as 5 of 6 and the survivor count [8] is reported as 1 of 6.
With `CCCCNCCN(CC)CC` the survivor count [7] was 0 of 6 and the survivor count [8] was 0 of 6.
With `CCNCCNCC(Cc1ccccc1)c1ccccc1` (stereo not drawn) the survivor count (T/C endpoint: mean survival time, dose: 200.0 mg/kg/injection, schedule: Q04DX002 (ip), vehicle: saline) was 0 of 3 and the survivor count [9] was 0 of 3.
`CC(C)OC1=C2CCCCC2=[N+]2CCc3ccccc3C2C1` (stereo not drawn) was tested, and the survivor count (T/C endpoint: mean survival time, dose: 100.0 mg/kg/injection, schedule: Q01DX001 (ip), vehicle: Klucel (hydroxypropylcellulose) (HPC)) was 0 of 6, the survivor count (T/C endpoint: mean survival time, dose: 200.0 mg/kg/injection, schedule: Q01DX001 (ip), vehicle: Klucel (hydroxypropylcellulose) (HPC)) was 1 of 6 and the survivor count (T/C endpoint: mean survival time, dose: 400.0 mg/kg/injection, schedule: Q01DX001 (ip), vehicle: Klucel (hydroxypropylcellulose) (HPC)) was 0 of 6.
With `CCC(C)C(CN)(CCCCN(C)C)c1cccc2ccccc12` (stereo not drawn) the survivor count [8] was 6 of 6.
With `NC(=S)NNc1ccccc1` the survivor count [1] was 3 of 3.
For `CC(C)NC(=O)C1CC2c3cccc4[nH]c(Br)c(c34)CC2N(C)C1` (stereo not drawn), the survivor count (T/C endpoint: mean survival time, dose: 100.0 mg/kg/injection, schedule: Q04DX003 (ip), vehicle: saline with Tween-80) was 0 of 6, the survivor count [7] was 0 of 6 and the survivor count [8] was 0 of 6.
In the case of `Cc1ccc([I+]c2ccc(C)cc2)cc1`, the survivor count (T/C endpoint: mean survival time, dose: 64.0 mg/kg/injection, schedule: Q04DX002 (ip), vehicle: saline) is reported as 0 of 3, the survivor count (T/C endpoint: mean survival time, dose: 128.0 mg/kg/injection, schedule: Q04DX002 (ip), vehicle: saline) is reported as 0 of 3 and the survivor count (T/C endpoint: mean survival time, dose: 256.0 mg/kg/injection, schedule: Q04DX002 (ip), vehicle: saline) is reported as 0 of 3.
In the case of `CSc1ncc(Br)c(N2CC2)n1`, the survivor count (T/C endpoint: mean survival time, dose: 133.0 mg/kg/injection, schedule: Q01DX Z (ip), vehicle: methylcellulose (MC)) is reported as 1 of 6 and the survivor count (T/C endpoint: mean survival time, dose: 200.0 mg/kg/injection, schedule: Q01DX Z (ip), vehicle: methylcellulose (MC)) is reported as 0 of 6.
With `O=C1C=CC(=O)N1CN1CCOCC1` (tested in a mixture with another compound) the survivor count (T/C endpoint: mean survival time, dose: 25.0 mg/kg/injection, schedule: Q01DX009 (ip), vehicle: saline) was 3 of 3.
In the case of `CCCCCCCCCCCCSC1=NCCN1`, the survivor count (T/C endpoint: mean survival time, dose: 175.0 mg/kg/injection, schedule: Q04DX003 (ip), vehicle: Klucel (hydroxypropylcellulose) (HPC)) is reported as 2 of 6 and the survivor count (T/C endpoint: mean survival time, dose: 350.0 mg/kg/injection, schedule: Q04DX003 (ip), vehicle: Klucel (hydroxypropylcellulose) (HPC)) is reported as 0 of 6.
With `O=c1ccc2c([N+](=O)[O-])cc([N+](=O)[O-])c(O)c2[nH]1` the survivor count [5] was 1 of 4.
For `Cc1ccccc1NC(=O)CS`, the survivor count [8] was 5 of 6.
In the case of `CN(C)P(Cl)(Cc1ccccc1)(c1ccccc1)c1ccccc1`, the survivor count (T/C endpoint: mean survival time, dose: 12.5 mg/kg/injection, schedule: Q01DX009 (ip), vehicle: saline) is reported as 0 of 6, the survivor count (T/C endpoint: mean survival time, dose: 25.0 mg/kg/injection, schedule: Q04DX003 (ip), vehicle: saline) is reported as 0 of 6 and the survivor count (T/C endpoint: mean survival time, dose: 50.0 mg/kg/injection, schedule: Q04DX003 (ip), vehicle: saline) is reported as 0 of 6. The survivor count [3] was 0 of 6, the survivor count [2] was 0 of 6 and the survivor count [4] was 0 of 6.
In the case of `COC1/C=C/OC2(C)Oc3c(C)c(O)c4c(O)c(c(/C=N/N5CCN(Cc6ccccc6)CC5)c(O)c4c3C2=O)NC(=O)C(C)=C/C=C/C(C)C(O)C(C)C(O)C(C)C(OC(C)=O)C1C` (stereo not drawn), the survivor count (T/C endpoint: mean survival time, dose: 100.0 mg/kg/injection, schedule: Q01DX009 (ip), vehicle: Klucel (hydroxypropylcellulose) (HPC)) is reported as 8 of 10, the survivor count (T/C endpoint: mean survival time, dose: 200.0 mg/kg/injection, schedule: Q01DX009 (ip), vehicle: Klucel (hydroxypropylcellulose) (HPC)) is reported as 0 of 9 and the survivor count (T/C endpoint: mean survival time, dose: 400.0 mg/kg/injection, schedule: Q01DX009 (ip), vehicle: Klucel (hydroxypropylcellulose) (HPC)) is reported as 0 of 10.
For `C=CC(C)NC(=S)NNC(=S)NC` (stereo not drawn), the survivor count (T/C endpoint: mean survival time, dose: 30.0 mg/kg/injection, schedule: Q01DX015 (ip), vehicle: carboxymethylcellulose (CMC)) was 6 of 6, the survivor count (T/C endpoint: mean survival time, dose: 120.0 mg/kg/injection, schedule: Q01DX015 (ip), vehicle: carboxymethylcellulose (CMC)) was 6 of 6 and the survivor count [6] was 6 of 6.
In the case of `C/C=C/C=N/Nc1ccccc1`, the survivor count (T/C endpoint: mean survival time, dose: 400.0 mg/kg/injection, schedule: Q01DX001 (ip), vehicle: other) is reported as 4 of 6.
`ClCCN(CCCl)c1ccc(C[n+]2ccc3ccccc3c2)cc1` was tested, and the survivor count (T/C endpoint: mean survival time, dose: 64.0 mg/kg/injection, schedule: Q01DX015 (ip), vehicle: carboxymethylcellulose (CMC)) was 0 of 6.
With `CSC(N)=Nc1c(C)cccc1C` the survivor count [5] was 2 of 6.
For `[C-]#[N+]CCc1ccccc1`, the survivor count (T/C endpoint: mean survival time, dose: 400.0 mg/kg/injection, schedule: Q01DX001 (ip), vehicle: saline with Tween-80) was 0 of 6.
`O=C1C=C[C@H](O)[C@@]2(CO)O[C@@H]12` was tested, and the survivor count (T/C endpoint: median survival time, dose: 20.0 mg/kg/injection, schedule: Q01DX009 (ip), vehicle: saline with Tween-80) was 3 of 6.
For `CCN(CC)CCCC(C)Nc1ccc(O)c2c1C(=O)c1ccccc1C2=O` (stereo not drawn), the survivor count [9] was 1 of 3.
With `O=C(O)Cc1ccc2c3c(ccc([N+](=O)[O-])c13)CC2` the survivor count [8] was 6 of 6.
